Laboratory results from patent US20230414732A1, “COMPOSITIONS OF EMBEDDED EPITOPE RANDOM PEPTIDES (EERP) FOR TREATMENT OF IMMUNE-MEDIATED CONDITIONS, AND METHODS OF USE” (PALENA THERAPEUTICS, INC., priority 2020, published 2023).
At least one compound was matched to its structure with a doubt left.

System: MOG-induced EAE in C57B1/6 female mice
Assay: Prophylactic treatment of MOG35-55-induced EAE, a mouse model of MS
Assay type: in vivo
Settings: Example 3: PT-002 at 150 μg/dose and 500 μg/dose, co-administered with MOG35-55; 28 days post immunization
From the text: FIG. 2 is a graph showing prophylactic treatment of MOG-induced EAE in mice (an animal model for multiple sclerosis (MS)) using an EERP according to the present invention. EAE was induced in C57B1/6 female mice at 10 weeks of age by MOG35-55 (Control; depicted as diamonds) and treated prophylactically by co-administration of Glatopa (depicted as triangles), PT-001 (YFAK random copolymer, depicted as open squares), or PT-002 (EERP consisting of linear random polypeptide YFAK with the peptide AYKAAA embedded in it; depicted as cross) at 500 μg/dose each. Mice (12 per treatment group) were monitored for signs of disease for 28 days post immunization. Numbers on the ordinate represent mean clinical score of clinical symptoms monitored for the days shown on the abscissa.
FIG. 3 is a graph showing prophylactic treatment of MOG-induced EAE in mice using two different doses of an EERP according to the present invention. […] Mice (10 per treatment group) were monitored for signs of disease for 28 days post immunization. Numbers on the ordinate represent mean clinical score of clinical symptoms monitored for the days shown on the abscissa. […]
Prophylactic treatment of EAE, a mouse model of MS. […] Mice (12 per treatment group) were monitored daily in a blind fashion starting from Day 7 for signs of disease for 28 days post immunization. […]

CCCCCCCCc1ccc(CCC(N)(CO)CO)cc1 [FTY720, fingolimod]
Signs of disease (clinical score): did not exhibit any signs of disease
